# Laboratory results: article PMC5546511
# The chains behind the UniProt entries cited, without tags or fusion partners. Residues count along the entry.
# UniProt Q9BZS1, residues 1-417: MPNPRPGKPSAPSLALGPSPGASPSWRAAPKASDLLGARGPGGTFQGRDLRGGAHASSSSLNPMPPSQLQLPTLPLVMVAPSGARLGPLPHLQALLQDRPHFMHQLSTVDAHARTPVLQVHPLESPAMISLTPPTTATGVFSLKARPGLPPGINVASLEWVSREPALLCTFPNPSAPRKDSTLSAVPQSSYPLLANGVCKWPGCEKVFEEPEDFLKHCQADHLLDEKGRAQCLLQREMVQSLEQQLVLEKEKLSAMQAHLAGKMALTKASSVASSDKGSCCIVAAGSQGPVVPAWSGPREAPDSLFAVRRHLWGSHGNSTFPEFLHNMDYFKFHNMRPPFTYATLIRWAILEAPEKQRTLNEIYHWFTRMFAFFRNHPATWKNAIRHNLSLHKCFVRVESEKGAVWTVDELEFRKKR
# UniProt Q04206: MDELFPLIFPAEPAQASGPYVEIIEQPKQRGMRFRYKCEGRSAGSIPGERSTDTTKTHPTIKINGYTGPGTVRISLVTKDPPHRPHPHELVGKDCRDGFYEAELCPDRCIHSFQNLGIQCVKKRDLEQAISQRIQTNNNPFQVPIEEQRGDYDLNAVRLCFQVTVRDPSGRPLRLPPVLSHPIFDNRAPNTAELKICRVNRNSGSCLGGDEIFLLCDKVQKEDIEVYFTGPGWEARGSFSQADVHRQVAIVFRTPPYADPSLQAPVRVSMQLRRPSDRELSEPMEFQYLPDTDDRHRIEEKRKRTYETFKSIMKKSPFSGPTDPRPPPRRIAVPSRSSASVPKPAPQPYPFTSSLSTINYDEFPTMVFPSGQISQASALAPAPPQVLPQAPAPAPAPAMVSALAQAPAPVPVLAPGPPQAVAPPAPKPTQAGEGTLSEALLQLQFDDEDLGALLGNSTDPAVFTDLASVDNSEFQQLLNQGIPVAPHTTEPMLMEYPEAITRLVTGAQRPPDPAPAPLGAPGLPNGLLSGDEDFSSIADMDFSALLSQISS
# No constants are given. Whether binding was seen depends on the method and setting. In cells and extracts the contact can be indirect. Some entries that bind do so weakly or less than the wild type.
# Molecular target: FOXP3 (human (endogenous in colorectal cancer sphere cells)) (UniProt Q9BZS1)
# Experiment: co-IP; endogenous proteins in lysate of sphere cells; IP with anti-FOXP3 (Abcam) or, in the reverse direction, anti-p65 (Cell Signaling) on Dynabeads Protein G, 2 hours at 4°C, then western blot
substance,measurement,value
p65 subunit of NFκB (from UniProt Q04206 1-551),binding,binds
